Results reported in paper PMC9321973.
These are yes or no findings as the source states them, for the method shown. Binding seen in cells or lysates may run through a third protein. Some entries that bind do so weakly or less than the wild type. Tags and fused reporters may be left off the sequences shown.

Sequences of proteins named here, by UniProt entry; tags and fusion partners are left off. A change or cut given only in a name is not applied to a line headed by its entry.
UniProt P03496: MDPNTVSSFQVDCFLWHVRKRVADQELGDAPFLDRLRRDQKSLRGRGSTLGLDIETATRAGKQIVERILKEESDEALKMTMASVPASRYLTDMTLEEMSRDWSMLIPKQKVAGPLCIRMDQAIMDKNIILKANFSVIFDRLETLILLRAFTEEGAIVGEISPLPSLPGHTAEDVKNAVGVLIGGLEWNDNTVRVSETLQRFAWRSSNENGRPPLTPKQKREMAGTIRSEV

How the values were obtained:
[1] = biological target: 3×FLAG-tagged N-terminus-truncated NS1 protein (amino acids 79–230) of influenza A virus PR8(H1N1) (influenza virus A/PR8/34 (H1N1)) (UniProt P03496); test: co-IP
[2] = biological target: 3×FLAG-tagged full-length NS1 protein of influenza A virus PR8(H1N1) (influenza virus A/PR8/34 (H1N1)) (UniProt P03496); test: co-IP

B1: Myc-tagged 14-3-3γ (protein, UniProt P61981 1-247)
chain: MVDREQLVQKARLAEQAERYDDMAAAMKNVTELNEPLSNEERNLLSVAYKNVVGARRSSWRVISSIEQKTSADGNEKKIEMVRAYREKIEKELEAVCQDVLSLLDNYLIKNCSETQYESKVFYLKMKGDYYRYLAEVATGEKRATVVESSEKAYSEAHEISKEHMQPTHPIRLGLALNYSVFYYEIQNAPEQACHLAKTAFDDAIAELDTLNEDSYKDSTLIMQLLRDNLTLWTSDQQDDDGGEGNN
binding [1]: binds
binding [2]: binds
